Source: article PMC8657633

Amino acid sequences for entries named in this document (tags omitted). A change or cut given only in a name is not applied to a line headed by its entry.
UniProt Q9LS25: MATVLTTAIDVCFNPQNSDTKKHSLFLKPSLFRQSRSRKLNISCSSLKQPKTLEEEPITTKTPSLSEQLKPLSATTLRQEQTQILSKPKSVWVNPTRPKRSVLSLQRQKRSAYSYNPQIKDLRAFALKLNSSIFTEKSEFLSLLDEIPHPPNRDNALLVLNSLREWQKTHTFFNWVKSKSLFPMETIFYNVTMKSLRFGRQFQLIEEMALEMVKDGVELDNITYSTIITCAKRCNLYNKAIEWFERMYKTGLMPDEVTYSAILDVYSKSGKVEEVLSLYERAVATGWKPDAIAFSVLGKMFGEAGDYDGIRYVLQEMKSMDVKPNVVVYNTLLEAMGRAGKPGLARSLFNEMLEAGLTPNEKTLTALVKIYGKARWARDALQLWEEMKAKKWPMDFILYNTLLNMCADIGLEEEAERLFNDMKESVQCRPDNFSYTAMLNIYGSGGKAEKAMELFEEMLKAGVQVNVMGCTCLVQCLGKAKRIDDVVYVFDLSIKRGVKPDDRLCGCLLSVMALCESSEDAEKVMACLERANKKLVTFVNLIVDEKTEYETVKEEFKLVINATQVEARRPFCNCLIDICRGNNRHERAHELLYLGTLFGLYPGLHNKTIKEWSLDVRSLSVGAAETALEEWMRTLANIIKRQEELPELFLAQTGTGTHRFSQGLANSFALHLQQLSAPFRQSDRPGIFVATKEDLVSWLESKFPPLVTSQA

Experiments:
Assay in all cases: EMSA
MBP-SOT1 + CAF1 = conditions: CAF1 added in increasing amounts, 10 nM probe, enhances SOT1 binding; 10 mM HEPES pH 7.3, 20 mM KCl, 2 mM MgCl2, 1 mM DTT, 5% glycerol, RNA probe 1 nM (Methods) or 10 nM, 22 C, 30 min; 7% native PAGE; recombinant protein; protein details: MBP; label: 5' biotin
[1] = target: MBP-SOT1 (Arabidopsis thaliana) (UniProt Q9LS25); conditions: no CAF, affinity considerably lower than with CAF1 or CAF2; 10 mM HEPES pH 7.3, 20 mM KCl, 2 mM MgCl2, 1 mM DTT, 5% glycerol, RNA probe 1 nM (Methods) or 10 nM, 22 C, 30 min; 7% native PAGE; recombinant protein; protein details: MBP; label: 5' biotin
MBP-SOT1 + CAF2 = conditions: CAF2 added in increasing amounts, 10 nM probe, enhances SOT1 binding; 10 mM HEPES pH 7.3, 20 mM KCl, 2 mM MgCl2, 1 mM DTT, 5% glycerol, RNA probe 1 nM (Methods) or 10 nM, 22 C, 30 min; 7% native PAGE; recombinant protein; protein details: MBP; label: 5' biotin

UGGCUGAUAUUA [ndhA 5' end 12-nt RNA (RNA 12)]
binding result (MBP-SOT1 + CAF1): binds | binding result [1]: binds more weakly | binding result (MBP-SOT1 + CAF2): binds

Construct, isoform or probe ends are uncertain for at least one entry. For part of these data: A weaker result is weaker than the reference pair of the same experiment. For part of these data: At least one verdict rests on a figure or table, not on a statement of the authors.
